In all, about 31,000 sequences went through this assay and about 1,400 (4.5%) were called active.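 The calls were made as follows: active = median seed-adjusted z-score above 1 or below -1; inactive = the rest.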 Some of the results follow.

A short description of the assay: Novel Modifiers of Survival Motor Neuron (SMN) Protein: Gene Identification via Genome-wide siRNA Screen.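 Also: luminescence tracks full-length SMN protein made from the SMN2 reporter.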 Particulars: HEK293T SMN2-luciferase reporter, siRNA knockdown, 72 h; actives lie on both sides. Put shortly: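 Steps: spot 1 pmol siRNA, add Lipofectamine RNAiMax in serum-free DMEM, seed HEK293T SMN2–luciferase reporter cells; incubate 72 h at 37 °C; add ONE-Glo; normalize luminescence to control siRNA, log10, MAD. Candidates: |MAD| > 1.0.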
Consider GAACCAAUCCAGUCAGGAUTT against PXMP2, for which the median seed-adjusted z-score is inactive: -0.444.
As for AGAUGAAACUUAUUGAACATT against PHF15, the figure is inactive: 0.
For the sequence GAGUGCAAUUGGAACCUGATT against ARHGAP30, the median seed-adjusted z-score was inactive: 0.0946.
GGUGGGCAGUGGUUACAAUTT against KCNA6: the median seed-adjusted z-score is inactive: 0.
GAAAGGACGACGUAAUCAATT against ZMYND11: the median seed-adjusted z-score is inactive: -0.032.
On to CUCUCUCAGUAGACGACAATT against AKAP6, for which the median seed-adjusted z-score was inactive: -0.0978.
For GAGUUUCGCCUGCUACAGATT against CELSR3, the median seed-adjusted z-score was inactive: 0.
As to ACUGCUGCGUGAUCCAUCATT against ITGB1BP3, the median seed-adjusted z-score is inactive: 0.0514.
GGCUAGACACGGGAGAAUATT against PDGFRB: the median seed-adjusted z-score is inactive: -0.709.
In the case of CCAGGACAAAUGUUCGAUUTT against RAB3GAP2, the median seed-adjusted z-score is inactive: 0.0583.
On to GCAUCAGGGUCAUGGUUCATT against SCNN1D, for which the median seed-adjusted z-score was active: -1.8.
Consider CACCUUUUCGCGCUCCUACTT against KCNG2, for which the median seed-adjusted z-score is inactive: 0.
As for CAAGAACACCAUACUGAAATT against IDH2, the median seed-adjusted z-score is inactive: 0.0592.
As for CGACCGCACCUGGAAUGAATT against PLA2G4D, the median seed-adjusted z-score is inactive: -0.233.
As for GGAUGGAACUUUACCCUCATT against MKL2, the figure is inactive: -0.863; as for GGAUGAAGUUUGACGCACATT against PCK1, inactive: -0.401; as for GGCUCUACGGUUUCAAGAUTT against CSNK2B, active: -1.62.
On to ACAUCCACAGGUUCACUAATT against NDUFA1, for which the median seed-adjusted z-score was inactive: 0.182.
In the case of GAACCGCAGUUGGAAUUCATT against INPP4B, the median seed-adjusted z-score is inactive: 0.0722.
As to CUAUGAUUAUUAACGAUGUTT against RHOA, the median seed-adjusted z-score is inactive: -0.219.
Consider GCCGAUACCUUCACUCGAATT against TAP1, for which the median seed-adjusted z-score is inactive: -0.506.
For GGAAGAUCCAAGCUUCGAATT against SLTM, the median seed-adjusted z-score is inactive: 0.547.
CACCCACCGCCACAAUAAATT against BSG: the median seed-adjusted z-score was inactive: 0.211.
CAAUGAAGAUAUGUUUAGATT against WBP5: the median seed-adjusted z-score was inactive: 0.452.
The same measure for CAAGAGUCAUUGCACUGGATT against ZNF114: inactive: -0.303; for CAUACACUCUACUCCUGCUTT against CDH26: inactive: 0.
As for GGACUUUGCCUAUGUCUGUTT against TFAP2C, the figure is active: 1.28.
As to CCAUUUGGAUAUCAAAGUATT against ILF2, the median seed-adjusted z-score is inactive: -0.19.
On to CCACCUGAGUAACCCAUAUTT against PBX2, for which the median seed-adjusted z-score is inactive: 0.253.
On to AGACGUACAUUCCAAAGGATT against ZNF516, for which the median seed-adjusted z-score was inactive: 0.56.
For CGAAGUGGCCUGAACCUGUTT against MASP2, the median seed-adjusted z-score was inactive: -0.137.
Turning to CAGCAUUACAUGAAAGAAATT against FEZF1, the median seed-adjusted z-score was inactive: 0.155.
Consider GUACCACCCUGACAAAAAUTT against DNAJB9, for which the median seed-adjusted z-score is inactive: 0.0962.
GAGGCAGUCUUAAAAUGGATT against RAB32: the median seed-adjusted z-score is inactive: -0.112.
In the case of GAACUAUGGUGCUACUGGATT against ZNF449, the median seed-adjusted z-score was inactive: 0.178.
As to UGGUCUUGCACAUGACUAATT against FZD9, the median seed-adjusted z-score was inactive: -0.0532.
Regarding GUGUCAGAGUUUAUAUCAATT against PDE4D, the median seed-adjusted z-score is inactive: 0.
The same measure for GAUCAGCUAUAUCAUAUUATT against CDKL2: inactive: -0.293; for GCCUCCCACUGGUUAUACUTT against EWSR1: inactive: -0.654.
GGAUGUCACUGAUCUCAAUTT against MYOCD: the median seed-adjusted z-score is inactive: -0.121.
The same measure for CCUUUGAGCUUAAAGAGCATT against ZFYVE19: inactive: 0.0704; for GGAUGUGAAGUUCAAGCUUTT against DHX34: inactive: -0.269.
As to CAUCCGACAUUGAAGUUGATT against B2M, the median seed-adjusted z-score is inactive: -0.367.
For GGCACGAGUCAUUCCCAUATT against PECR, the median seed-adjusted z-score was inactive: -0.347.
With ACUGAAAACUGGUGAGACATT against PPAP2B, the median seed-adjusted z-score was inactive: 0.
With CAGAUUGUCUGAUUCGAUUTT against TRIP11, the median seed-adjusted z-score was inactive: 0.333.
Consider CGGGAAUGGUUAUGAAUCUTT against PTS, for which the median seed-adjusted z-score is inactive: -0.103.
Take GAAGUGAACUCCAUGCUCATT against INPP5J: the median seed-adjusted z-score is inactive: 0.223.
Turning to GAGCGAUCCUUGUUAUGAATT against GRID2, the median seed-adjusted z-score was inactive: 0.676.
As for GGCAGAUAUGGUGAACGAATT against UGCGL1, the median seed-adjusted z-score is inactive: -0.391.
Turning to GGAAGUUCCUCUCCAAUGATT against CD22, the median seed-adjusted z-score was inactive: -0.448.
Turning to CGGUGCAACUUCUUCCUCUTT against APEX2, the median seed-adjusted z-score is inactive: -0.347.
The same measure for GGAGUGUGACCGUCACUAUTT against KAL1: inactive: 0.0824; for CCAUGACUACUGUUGGGUATT against KCNB1: inactive: 0.0206.
Turning to CUAUGAAGGUACUAAUGAATT against CD2AP, the median seed-adjusted z-score was inactive: 0.113.
Turning to GCUGUCUUAUGGUCUACAATT against ADAT2, the median seed-adjusted z-score was inactive: 0.604.
Take CCUUUGAACUCCUUACUUUTT against TBX22: the median seed-adjusted z-score is inactive: 0.0269.
The same measure for GAGUCACUCUUUGUUCGAATT against MAPKAP1: inactive: -0.0499.
For the sequence GAAAGACGAUUAAGACGAUTT against SCN1A, the median seed-adjusted z-score was inactive: 0.031.
Consider GGUGAUGCCCAACUACCCATT against ETV3, for which the median seed-adjusted z-score was inactive: -0.039.
As for GGACGAUAAACUUCGAAAUTT against ARAP2, the figure is inactive: 0.388; as for GACUGCACCUUCUUCAAUATT against CIB2, inactive: 0.569.
Take CCUCCAAUCCAAGACCAAATT against SYT15: the median seed-adjusted z-score was inactive: 0.0164.
Turning to CACCAGAUCUACCAGUUCATT against ADM, the median seed-adjusted z-score was inactive: 0.65.
The same measure for GCAUUGUCGUUGCAAUCGATT against CLCA1: inactive: 0.015; for GUGUUACAAAGGUAGAUUATT against GALNT1: inactive: -0.164; for GGUCAGAGACCAUCCAGAATT against GFRA4: active: -1.59.
As for GCAUUACACUGUUUAUCCATT against UNG, the median seed-adjusted z-score is inactive: 0.259.
CCAUCAAGGCAUUCAAAGATT against EGR3: the median seed-adjusted z-score was inactive: -0.232.

Source of the values: PubChem BioAssay AID1347426 (Functional Genomics Laboratory (NCATS/FGL), 2020).
